In PMC2689706:
These are yes or no findings as the source states them, for the method shown. Binding calls can cover weak binding; strength is not graded here. Sequences can lack the tags named with a protein. For part of these data: In cells and extracts the contact can be indirect. Blank lines part the entries; values can stand above or below the molecule they belong to.

Legend:
[1] = target: T1, FLAG-tagged hUpf1 (human) (UniProt Q92900); experiment: co-IP; HEK 293T cells co-transfected with FLAG- and Myc-tagged proteins; RNase A-treated extract, 150 mM NaCl; anti-FLAG M2 agarose, 2 h, 4 °C; eluted with FLAG peptide; anti-Myc Western blot
T1 sequence: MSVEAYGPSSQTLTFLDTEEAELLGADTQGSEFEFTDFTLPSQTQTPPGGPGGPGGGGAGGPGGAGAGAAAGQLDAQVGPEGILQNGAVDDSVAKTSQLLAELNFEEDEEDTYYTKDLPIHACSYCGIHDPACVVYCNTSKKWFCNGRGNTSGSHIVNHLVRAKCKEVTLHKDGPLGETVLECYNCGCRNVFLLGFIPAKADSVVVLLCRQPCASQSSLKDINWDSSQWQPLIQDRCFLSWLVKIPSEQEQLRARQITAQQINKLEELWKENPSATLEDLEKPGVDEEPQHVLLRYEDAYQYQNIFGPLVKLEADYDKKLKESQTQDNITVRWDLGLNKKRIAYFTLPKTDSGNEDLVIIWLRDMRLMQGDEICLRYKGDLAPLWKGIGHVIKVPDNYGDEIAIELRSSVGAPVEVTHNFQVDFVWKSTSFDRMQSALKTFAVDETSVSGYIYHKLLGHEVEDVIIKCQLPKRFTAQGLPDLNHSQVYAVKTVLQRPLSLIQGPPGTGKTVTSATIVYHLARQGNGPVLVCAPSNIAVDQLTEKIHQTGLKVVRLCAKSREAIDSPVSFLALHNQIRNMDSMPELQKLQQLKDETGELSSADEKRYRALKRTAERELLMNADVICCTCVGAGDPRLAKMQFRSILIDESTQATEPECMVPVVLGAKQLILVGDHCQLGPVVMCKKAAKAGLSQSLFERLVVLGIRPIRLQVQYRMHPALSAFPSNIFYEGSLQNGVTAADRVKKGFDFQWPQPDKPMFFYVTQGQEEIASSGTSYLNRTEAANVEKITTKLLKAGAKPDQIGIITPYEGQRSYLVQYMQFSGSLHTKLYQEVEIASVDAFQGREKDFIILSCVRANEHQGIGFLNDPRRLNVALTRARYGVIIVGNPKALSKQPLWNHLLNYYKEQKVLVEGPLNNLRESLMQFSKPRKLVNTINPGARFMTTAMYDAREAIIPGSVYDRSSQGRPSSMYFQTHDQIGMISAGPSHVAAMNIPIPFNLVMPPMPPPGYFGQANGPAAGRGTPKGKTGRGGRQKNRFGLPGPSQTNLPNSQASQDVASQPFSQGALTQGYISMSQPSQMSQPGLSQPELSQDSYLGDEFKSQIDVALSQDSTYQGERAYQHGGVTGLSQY

[2] = target: Myc-tagged eRF3 (wild type, longer isoform) (human); experiment: pull-down; Myc-eRF3 immobilised on anti-Myc resin; affinity-purified FLAG-tagged proteins added in 50 μl NET-2 with 0.1 mg/ml BSA and 0.2 mg/ml FLAG peptide, 4 °C, 2-3 h; anti-FLAG Western blot; increasing amounts of FLAG-PABPC1 or FLAG-hnRNP A1 as competitor; both purified

binding [1]: binds
Molecule: Myc-tagged eRF3 (wild type, longer isoform) (human)

binding [1]: binds
Molecule: Myc-tagged eRF3 KAKA mutant protein (human)

binding [2]: binds
B1: FLAG-tagged hUpf1 (protein, UniProt Q92900 1-1129)
chain: T1 sequence
